Measured values from ChEMBL document CHEMBL5356968, “Miconazole-like Scaffold is a Promising Lead for Naegleria fowleri-Specific CYP51 Inhibitors” (J Med Chem, 2023).

Tested on: Naegleria fowleri
Assay: Antiprotozoal activity against Naegleria fowleri European KUL assessed as inhibition of parasite growth incubated for 48 hrs by CellTiter-Glo luminescent cell viability assay
Format: functional, organism-based
Procedure, shortened: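 N. fowleri European KUL trophozoites, axenic in Nelson's medium + 10% FBS at 37 °C, harvested in log phase. Single-point screen at 10 μM in duplicate (2,500 amoebae/well). Dose–response in triplicate, serial dilution 50 to 0.39 μM (10,000 amoebae/well). 48 h at 37 °C; viability by CellTiter-Glo luminescence.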

Compound `Clc1ccc(COC(Cn2ccnc2)c2ccc(Cl)cc2Cl)c(Cl)c1` (stereo unspecified) [MICONAZOLE] has an EC50 of less than 2000 nM.
